Test results as given in patent publication US20100113421A1, “NON-NUCLEOSIDE REVERSE TRANSCRIPTASE INHIBITORS” (priority 2006, published 2010).
Read-outs that look alike come from different tables or passages of the source. Some of these results come from one statement about several compounds together.

Legend:
HIV-1 RT enzyme = HIV-1 RT enzyme (Human immunodeficiency virus type 1 group M subtype B, UniProt P04585); assay: SPA assay for inhibition of HIV reverse transcriptase (wild type); assay type: biochemical
[1] = molecular target: T1, HIV reverse transcriptase with Y181C mutation (Human immunodeficiency virus type 1 group M subtype B, UniProt P04585, Y768C); assay: SPA assay, mutant reverse transcriptase Y181C; assay type: biochemical
T1 construct: against mutant HIV reverse transcriptase; made in house

[2] = Y181C mutant RT, read-out: IC50 in the Y181C assay
[3] = read-out: IC50 in the Y181C assay, Y181C mutant RT

Structure (SMILES)	IC50 (HIV-1 RT enzyme; read-out: IC50) [µM]	IC50 [1, 2] [µM]	IC50 (HIV-1 RT enzyme) [µM]	IC50 [1, 3] [µM]
Cc1c(C(=O)N(C)Cc2ccc(Cl)cc2Cl)[nH]c(C(N)=O)c1S(=O)(=O)c1cc(Cl)cc(Cl)c1 [Example 2, N-(2,4-Dichlorobenzyl)-4-[(3,5-dichlorophenyl)sulfonyl]-N,3-dimethyl-1H-pyrrole-2,5-dicarboxamide]	< 5	< 8		
Cc1c(C(=O)N(C)Cc2ccc(Cl)cc2Cl)[nH]c(C(N)=O)c1S(=O)(=O)c1ccccc1 [Example 1, N-(2,4-Dichlorobenzyl)-N,3-dimethyl-4-(1-phenylsulfonyl)-1H-pyrrole-2,5-dicarboxamide]	< 5	< 8		
Cc1c(C(=O)N(C)Cc2ccccc2Br)[nH]c(C(N)=O)c1S(=O)(=O)c1ccccc1 [Example 9, N-(2-bromobenzyl)-N,3-dimethyl-4-(phenylsulfonyl)-1H-pyrrole-2,5-dicarboxamide]	< 5	< 8		
Cc1c(C(=O)N(C)Cc2ccc(Cl)cc2Cl)[nH]c(C(N)=O)c1S(=O)(=O)N1CCCC1 [Example 116, N-(2,4-dichlorobenzyl)-N,3-dimethyl-4-(1-pyrrolidinylsulfonyl)-1H-pyrrole-2,5-dicarboxamide]	< 5	< 8		
Cc1c(C(=O)N(C)Cc2cccc(Cl)c2Cl)[nH]c(C(N)=O)c1S(=O)(=O)c1ccccc1 [Example 13, N-(2,3-dichlorobenzyl)-N,3-dimethyl-4-(phenylsulfonyl)-1H-pyrrole-2,5-dicarboxamide]	< 5	< 8		
Cc1c(C(=O)N(C)Cc2ccc(Cl)cc2Cl)[nH]c(C(=O)NCc2c(F)cccc2Cl)c1S(=O)(=O)c1ccccc1 [Example 77, N′-(2-chloro-6-fluorobenzyl)-N-(2,4-dichlorobenzyl)-N,3-dimethyl-4-(phenylsulfonyl)-1H-pyrrole-2,5-dicarboxamide]	< 5	< 8		
Cc1c(C(=O)N(C)Cc2ccccc2F)[nH]c(C(N)=O)c1S(=O)(=O)c1ccccc1 [Example 7, N-(2-fluorobenzyl)-N,3-dimethyl-4-(phenylsulfonyl)-1H-pyrrole-2,5-dicarboxamide]	< 5	< 8		
Cc1cc(C)cc(S(=O)(=O)c2c(C(N)=O)[nH]c(C(=O)N(C)Cc3ccccc3Cl)c2C)c1 [Example 25, N-(2-chlorobenzyl)-N,3-dimethyl-4-(3,5-dimethyiphenylsulfonyl)-1H-pyrrole-2,5-dicarboxamide]	< 5	< 8		
Cc1c(C(=O)N(C)Cc2ccccc2Cl)[nH]c(C(N)=O)c1S(=O)(=O)c1cc(Cl)cc(Cl)c1 [Example 34, N-(2-chlorobenzyl)-N,3-dimethyl-4-(3,5-dichlorophenylsulfonyl)-1H-pyrrole-2,5-dicarboxamide]			< 5	< 8
Cc1c(C(=O)N(C)Cc2ccccc2Cl)[nH]c(C(N)=O)c1S(=O)(=O)c1ccc2ccccc2c1 [Example 6, N-(2-Chlorobenzyl)-N,3-dimethyl-4-(2-naphthylsulfonyl)-1H-pyrrole-2,5-dicarboxamide]	< 5	< 8		
Cc1c(C(=O)N(C)Cc2ccc(Cl)cc2Cl)[nH]c(C(N)=O)c1S(=O)(=O)c1cccc(Cl)c1 [Example 21, N-(2,4-dichlorobenzyl)-N,3-dimethyl-4-(3-chlorophenylsulfonyl)-1H-pyrrole-2,5-dicarboxamide]			< 5	< 8
Cc1c(C(=O)N(C)Cc2ccc3ncccc3c2)[nH]c(C(N)=O)c1S(=O)(=O)c1ccccc1 [Example 43]	< 5			< 8
Cc1cc(C)cc(S(=O)(=O)c2c(C(N)=O)[nH]c(C(=O)N(C)Cc3ccc(Cl)cc3Cl)c2C)c1 [Example 27, N-(2,4-dichlorobenzyl)-N,3-dimethyl-4-(3,5-dimethylphenylsulfonyl)-1H-pyrrole-2,5-dicarboxamide]	< 5	< 8		
Cc1c(C(=O)N(C)Cc2ccc(Cl)cc2Cl)[nH]c(C(=O)NCc2ccccn2)c1S(=O)(=O)c1ccccc1 [Example 74, N-(2,4-dichlorobenzyl)-N,3-dimethyl-4-(phenylsulfonyl)-N′-(2-pyridinylmethyl)-1H-pyrrole-2,5-dicarboxamide]	< 5	< 8		
COc1cccc(CN(C)C(=O)c2[nH]c(C(N)=O)c(S(=O)(=O)c3ccccc3)c2C)c1 [Example 36, N-(3-methoxyobenzyl)-N,3-dimethyl-4-(phenylsulfonyl)-1H-pyrrole-2,5-dicarboxamide]	< 5	< 8		
Cc1c(C(=O)N(C)Cc2ccc(Cl)c(Cl)c2)[nH]c(C(N)=O)c1S(=O)(=O)c1ccccc1 [Example 14, N-(3,4-dichlorobenzyl)-N,3-dimethyl-4-(phenylsulfonyl)-1H-pyrrole-2,5-dicarboxamide]	< 5	< 8		
Cc1cc(C)cc(S(=O)(=O)c2c(C(N)=O)[nH]c(C(=O)N(C)Cc3ccccc3)c2C)c1 [Example 3, N-Benzyl-N,3-dimethyl-4-(3,5-dimethylphenylsulfonyl)-1H-pyrrole-2,5-dicarboxamide]	< 5	< 8		
Cc1c(C(=O)N(C)Cc2ccccc2Cl)[nH]c(C(N)=O)c1S(=O)(=O)c1cccc2ccccc12 [Example 5, N-(2-Chlorobenzyl)-N,3-dimethyl-4-(1-naphthylsulfonyl)-1H-pyrrole-2,5-dicarboxamide]	< 5	< 8		
Cc1c(C(=O)N(C)Cc2ccc(Cl)cc2Cl)[nH]c(C(=O)NCc2n[nH]c3ccccc23)c1S(=O)(=O)c1ccccc1 [Example 71, N-(2,4-Dichlorobenzyl)-N′-(1H-indazol-3-ylmethyl)-N,3-dimethyl-4-(phenylsulfonyl)-1H-pyrrole-2,5-dicarboxamide]	< 5	< 8		
Cc1cnccc1CNC(=O)c1[nH]c(C(=O)N(C)Cc2ccc(Cl)cc2Cl)c(C)c1S(=O)(=O)c1ccccc1 [Example 73, N-(2,4-dichlorobenzyl)-N,3-dimethyl-N′-[(3-methyl-4-pyridinyl)methyl]-4-(phenylsulfonyl)-1H-pyrrole-2,5-dicarboxamide]	< 5	< 8		
Cc1c(C(=O)N(C)Cc2ccccc2Cl)[nH]c(C(N)=O)c1S(=O)(=O)c1cccc(Cl)c1 [Example 20, N-(2-chlorobenzyl)-N,3-dimethyl-4-(3-chlorophenylsulfonyl)-1H-pyrrole-2,5-dicarboxamide]			< 5	< 8
Cc1c(C(=O)N(C)Cc2ccccc2)[nH]c(C(N)=O)c1S(=O)(=O)c1cc(Cl)cc(Cl)c1 [Example 32, N-benzyl-N,3-dimethyl-4-(3,5-dichlorophenylsulfonyl)-1H-pyrrole-2,5-dicarboxamide]			< 5	< 8
Cc1c(C(=O)N(C)Cc2ccsc2)[nH]c(C(N)=O)c1S(=O)(=O)c1ccccc1 [Example 38, N,3-dimethyl-4-(phenylsulfonyl)-N-(3-thienylmethyl)-1H-pyrrole-2,5-dicarboxamide]	< 5	< 8		
Cc1c(C(=O)N(C)Cc2cccc(Cl)c2)[nH]c(C(N)=O)c1S(=O)(=O)c1ccccc1 [Example 10, N-(3-chlorobenzyl)-N,3-dimethyl-4-(phenylsulfonyl)-1H-pyrrole-2,5-dicarboxamide]	< 5	< 8		
Cc1cccc(S(=O)(=O)c2c(C(N)=O)[nH]c(C(=O)N(C)Cc3ccc4ncccc4c3)c2C)c1 [Example 44]	< 5			< 8
